Reference: US20220411495A1, “POSITIVE ALLOSTERIC MODULATORS OF THE CALCIUM-SENSING RECEPTOR” (VIB VZW, priority 2019, published 2022)
Results are given in words; binding and its absence hold for the method and conditions named. Some results given as binding are weak or reduced against the parent protein; the word gives no strength.

Experiments:
[1] = molecular target: T1, isolated purified extracellular 'Venus flytrap domain' of CaSR (UniProt P41180); experiment: surface plasmon resonance
T1 sequence (looked up): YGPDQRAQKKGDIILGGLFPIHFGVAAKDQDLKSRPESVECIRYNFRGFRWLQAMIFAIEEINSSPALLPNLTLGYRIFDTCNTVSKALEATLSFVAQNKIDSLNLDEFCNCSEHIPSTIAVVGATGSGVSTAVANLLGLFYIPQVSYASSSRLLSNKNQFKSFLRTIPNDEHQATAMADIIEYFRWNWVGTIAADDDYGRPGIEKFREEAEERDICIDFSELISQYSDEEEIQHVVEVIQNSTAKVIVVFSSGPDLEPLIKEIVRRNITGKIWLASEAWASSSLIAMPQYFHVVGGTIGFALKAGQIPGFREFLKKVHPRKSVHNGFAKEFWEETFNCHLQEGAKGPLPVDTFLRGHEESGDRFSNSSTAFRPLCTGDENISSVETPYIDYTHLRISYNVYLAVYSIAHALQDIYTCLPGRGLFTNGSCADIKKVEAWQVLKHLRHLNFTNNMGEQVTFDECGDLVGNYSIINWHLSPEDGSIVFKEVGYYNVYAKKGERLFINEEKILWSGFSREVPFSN

[2] = molecular target: T1, isolated purified extracellular 'Venus flytrap domain' of CaSR; experiment: surface plasmon resonance (added at time 0, washed away at 120 sec)

binding [1]: binds
binding [2]: binds
B1: CaSR Nb4 (VHH)
VHH: QVQLVESGGGLVQAGGSLRLSCAASGRTFSTYRMGWFRQGLGKEREFVAAITANGVRTFYTDSVKGRFTISRDNAKNTLYLQMNSLQPDDTAVYLCAARRKGIFTVQQAQDITDWDYWGQGTQVTVSS
